Measured values taken from PMC6051343.
No constants are given. Whether binding was seen depends on the method and setting. For part of these data: Binding seen in cells or lysates may run through a third protein. Some binding calls cover weakened binding; strength is not graded here. For part of these data: Tags and fused reporters may be left off the sequences shown.

Columns and labels:
[1] = molecular target: T1, Psm3 (GAL4 DNA-binding domain bait, pGBKT7) (S. pombe) (UniProt O42649); assay: two-hybrid; GAL4 DNA-binding domain baits (pGBKT7) and GAL4 activation domain preys (pGADT7) in S. cerevisiae PJ69-4A; spotted onto SD minimal medium lacking appropriate amino acids
T1 sequence: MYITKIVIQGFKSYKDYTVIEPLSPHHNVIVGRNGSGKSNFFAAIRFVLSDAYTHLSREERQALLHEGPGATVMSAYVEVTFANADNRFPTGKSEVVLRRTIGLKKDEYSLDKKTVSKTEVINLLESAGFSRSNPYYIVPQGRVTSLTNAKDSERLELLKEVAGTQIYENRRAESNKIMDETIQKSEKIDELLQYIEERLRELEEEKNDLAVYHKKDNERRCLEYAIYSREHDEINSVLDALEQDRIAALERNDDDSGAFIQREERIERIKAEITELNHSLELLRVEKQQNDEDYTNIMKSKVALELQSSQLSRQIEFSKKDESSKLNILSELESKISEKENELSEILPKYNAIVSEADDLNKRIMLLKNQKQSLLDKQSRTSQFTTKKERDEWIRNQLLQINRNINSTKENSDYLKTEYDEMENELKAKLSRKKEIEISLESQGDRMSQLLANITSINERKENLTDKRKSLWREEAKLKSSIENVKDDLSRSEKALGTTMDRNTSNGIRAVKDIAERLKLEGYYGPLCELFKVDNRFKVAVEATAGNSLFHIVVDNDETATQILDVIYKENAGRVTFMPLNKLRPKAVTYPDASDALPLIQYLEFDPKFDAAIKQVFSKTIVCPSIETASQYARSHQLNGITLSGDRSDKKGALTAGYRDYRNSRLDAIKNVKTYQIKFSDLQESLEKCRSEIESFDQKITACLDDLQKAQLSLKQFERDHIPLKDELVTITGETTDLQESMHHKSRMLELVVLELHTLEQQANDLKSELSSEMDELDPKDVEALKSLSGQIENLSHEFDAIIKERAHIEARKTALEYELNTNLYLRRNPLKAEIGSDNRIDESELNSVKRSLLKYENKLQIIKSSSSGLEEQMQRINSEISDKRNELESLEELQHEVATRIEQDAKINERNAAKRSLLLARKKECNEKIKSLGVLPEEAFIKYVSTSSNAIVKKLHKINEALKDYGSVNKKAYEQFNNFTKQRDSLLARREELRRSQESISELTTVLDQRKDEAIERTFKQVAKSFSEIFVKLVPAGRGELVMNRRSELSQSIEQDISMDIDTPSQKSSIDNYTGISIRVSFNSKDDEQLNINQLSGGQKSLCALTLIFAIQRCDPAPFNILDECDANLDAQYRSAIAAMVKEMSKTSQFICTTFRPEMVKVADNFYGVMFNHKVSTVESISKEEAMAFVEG

[2] = molecular target: T2, Psc3 (GAL4 DNA-binding domain bait, pGBKT7) (S. pombe) (UniProt O13816); assay: as above
T2 sequence: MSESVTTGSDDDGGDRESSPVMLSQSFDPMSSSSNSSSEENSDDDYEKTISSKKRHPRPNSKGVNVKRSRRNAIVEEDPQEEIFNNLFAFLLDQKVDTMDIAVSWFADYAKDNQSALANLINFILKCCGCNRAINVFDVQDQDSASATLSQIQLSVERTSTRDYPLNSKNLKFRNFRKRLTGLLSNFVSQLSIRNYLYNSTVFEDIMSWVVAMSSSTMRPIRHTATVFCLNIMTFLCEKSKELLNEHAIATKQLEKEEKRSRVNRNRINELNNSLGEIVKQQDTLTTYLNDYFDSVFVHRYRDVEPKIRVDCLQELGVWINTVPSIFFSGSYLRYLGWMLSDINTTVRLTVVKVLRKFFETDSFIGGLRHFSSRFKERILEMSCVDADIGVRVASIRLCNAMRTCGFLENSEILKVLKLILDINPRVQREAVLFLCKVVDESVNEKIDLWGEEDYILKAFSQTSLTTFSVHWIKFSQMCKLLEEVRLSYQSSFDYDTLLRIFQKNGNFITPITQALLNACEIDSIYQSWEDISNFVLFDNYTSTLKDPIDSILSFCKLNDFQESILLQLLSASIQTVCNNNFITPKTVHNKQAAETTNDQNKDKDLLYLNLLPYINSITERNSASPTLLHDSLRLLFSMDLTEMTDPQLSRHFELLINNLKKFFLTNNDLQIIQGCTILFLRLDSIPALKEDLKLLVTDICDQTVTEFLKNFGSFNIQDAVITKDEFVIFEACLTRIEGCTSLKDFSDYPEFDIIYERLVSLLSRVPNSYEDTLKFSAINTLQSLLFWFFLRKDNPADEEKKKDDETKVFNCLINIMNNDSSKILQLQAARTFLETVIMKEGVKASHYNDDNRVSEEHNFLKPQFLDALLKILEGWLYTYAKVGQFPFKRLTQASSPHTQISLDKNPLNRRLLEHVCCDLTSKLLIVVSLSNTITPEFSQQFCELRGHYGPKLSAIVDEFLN

Psm1–Pk (S. pombe) = molecular target: T3, Psm1–Pk (S. pombe) (UniProt O94383); assay: co-IP; protein extracts of S. pombe cells expressing Psm1–Pk and Mus81–Myc, grown in YES or YES plus 0.01% MMS for 3 h; anti-V5 agarose beads for 4 h to bind Psm1–Pk; blotted against the Pk and Myc tags
T3 sequence: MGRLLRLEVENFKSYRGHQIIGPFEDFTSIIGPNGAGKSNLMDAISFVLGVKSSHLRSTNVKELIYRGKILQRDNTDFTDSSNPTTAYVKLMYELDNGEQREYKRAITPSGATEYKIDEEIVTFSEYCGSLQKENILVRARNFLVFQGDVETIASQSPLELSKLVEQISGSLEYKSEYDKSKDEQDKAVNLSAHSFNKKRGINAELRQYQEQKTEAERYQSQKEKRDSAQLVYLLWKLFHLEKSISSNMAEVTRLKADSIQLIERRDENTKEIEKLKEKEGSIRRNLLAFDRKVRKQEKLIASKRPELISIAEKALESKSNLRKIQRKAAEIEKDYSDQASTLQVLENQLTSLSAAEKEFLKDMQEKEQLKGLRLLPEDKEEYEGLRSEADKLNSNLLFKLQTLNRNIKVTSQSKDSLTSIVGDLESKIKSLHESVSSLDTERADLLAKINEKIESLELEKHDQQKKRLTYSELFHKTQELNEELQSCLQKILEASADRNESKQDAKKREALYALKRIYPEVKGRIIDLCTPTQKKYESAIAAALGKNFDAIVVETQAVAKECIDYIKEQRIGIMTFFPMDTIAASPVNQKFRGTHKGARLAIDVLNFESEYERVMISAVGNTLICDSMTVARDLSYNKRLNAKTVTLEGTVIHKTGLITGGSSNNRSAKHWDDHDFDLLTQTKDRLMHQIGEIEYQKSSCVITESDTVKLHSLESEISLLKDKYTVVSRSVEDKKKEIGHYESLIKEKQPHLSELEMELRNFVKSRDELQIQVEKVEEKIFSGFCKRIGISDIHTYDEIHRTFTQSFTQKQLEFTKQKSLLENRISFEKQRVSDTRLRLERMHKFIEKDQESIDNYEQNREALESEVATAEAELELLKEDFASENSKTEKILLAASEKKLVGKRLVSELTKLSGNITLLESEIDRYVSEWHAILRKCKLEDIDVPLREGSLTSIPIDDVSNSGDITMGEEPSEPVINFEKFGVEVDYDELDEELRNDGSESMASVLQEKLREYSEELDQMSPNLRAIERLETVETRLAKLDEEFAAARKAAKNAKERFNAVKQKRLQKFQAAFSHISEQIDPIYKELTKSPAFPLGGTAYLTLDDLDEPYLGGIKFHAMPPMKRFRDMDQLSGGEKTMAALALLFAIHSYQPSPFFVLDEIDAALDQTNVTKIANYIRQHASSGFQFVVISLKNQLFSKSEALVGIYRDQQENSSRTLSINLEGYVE

B1: Mus81 (GAL4 activation domain prey, pGADT7) (protein, UniProt P87231 1-608)
chain: MDCGNPLFLQWIQEWMEESTRRFPKSYQTWRKAYDSMKSCPITFHRPSQALALKGIGPTICAKLEKKWNAYCLENNIPISTHNEQNDSHVNANKSSSETSSEKPRSVKKPTTRKRKVYVPSYRSGAYSILCALYMLNKHEFATKPQIVTMAQPYCDSSFGSATDRNMRYTAWSAMKTLITKNLVYQTGHPSKYCLTDDGEEVCIRLAKVDDSFQRKHTVSNFSVSKSDDHDSSLCQPPNFVTSINKAGSSSDHGGELHVTYCPVDHNEVSDGVETDIDVDQVDSLTGIHDHHIINNEQLIDLTEQEKKQPNESNLSNLKIETVLFSNCTVFLLIDTREIRSPLDRNLIIDKLTNDFGVNCQVRSLELGDALWVARDMESGQEVVLDFVVERKRYDDLVASIKDGRFHEQKARLKKSGIRSVTYILEESSYDESFTESIRTAVSNTQVDQLFHVRHTRSLEHSVSLLAEMTKQINLFYEKRKTLAVIPDLSIEAKTYESLREQLLKIDPSTPYHISYHAFSSVLSKSSTLTVGDIFIRMLMTIKGISASKAIEIQKKYPTFMHLFEAYEKSSSSQERNLLLNKTCQGYGFQTIGPALSAKVASVFFPES
**Q.** For B1, which binding [1] is on record?
**A.** Its binding is “binds”.

B2: Eme1 (GAL4 activation domain prey, pGADT7) (protein, UniProt Q9C103 1-735)
chain: MTLQSTDSAIVIDSEADVDISSSQASPSKDNIALSEHNVITVLDTPQRSTQCDSLLKSFSTPLVSGSEDVLPSPRDALNITNKKSVTDNLLLSLTSSNQSTNTNLNPSSRVEIINLNSSPPNSLSSQPKHQEFHLFHTPTIPRTTQLSSKTSSPIVIPDDNEQVASPLSKKAASLTSSPLKDFQSSPPLSTVLQKSHSLHDILLDTNDDDHFPFTQSPLTKTKSFNDALTSSSSILKPCMPSIASPTSNRLSHAPSTPNLFPNQDSSNTIDLINNRSKTSVENQERTFNLTSDVHLDSPTSPSKHSSIEPNTSQEDSFQELPSLNKLSIQSRAFKKMRLPKISRTTDTPPASTSNSNKKNLDKLKKMRKLCSRSLEPYELDSNTQRKRKRYEDSLKKSKTLDKVDSLNRKMAKELDRKNSKELQKINKVKRTKEECLSEIILLSPDDWASSWYSTVRSQLDSYNCQFVVNSNQPKDSIMWKRKVNNVFNSSTNRFELSIEHEQIEPFALLRLKCRDFIKYIEEDQADTFFHEMSEKFKGCKLILLLEGIPNYFKSLKAELNRQYAAAVNSGTRPLLFGSLSKYQNFTKEKLESEIVRFSFEHSILINTSNDEKETAQWIVSFTGDIALSRYKHFSKFSARASTTEIGHVKSADRIENSLNFMLRQILRVTPNIANAICDQFDSIPSLIHHLKTHGEESLTNVVIQSSISERNLGPVLSRRIYNTFLCKEASSDAP
**Q.** Which binding [2] does the source give for B2 here?
**A.** The binding was “binds weakly”.

B3: Mus81–Myc (protein, UniProt P87231 1-608)
chain: MDCGNPLFLQWIQEWMEESTRRFPKSYQTWRKAYDSMKSCPITFHRPSQALALKGIGPTICAKLEKKWNAYCLENNIPISTHNEQNDSHVNANKSSSETSSEKPRSVKKPTTRKRKVYVPSYRSGAYSILCALYMLNKHEFATKPQIVTMAQPYCDSSFGSATDRNMRYTAWSAMKTLITKNLVYQTGHPSKYCLTDDGEEVCIRLAKVDDSFQRKHTVSNFSVSKSDDHDSSLCQPPNFVTSINKAGSSSDHGGELHVTYCPVDHNEVSDGVETDIDVDQVDSLTGIHDHHIINNEQLIDLTEQEKKQPNESNLSNLKIETVLFSNCTVFLLIDTREIRSPLDRNLIIDKLTNDFGVNCQVRSLELGDALWVARDMESGQEVVLDFVVERKRYDDLVASIKDGRFHEQKARLKKSGIRSVTYILEESSYDESFTESIRTAVSNTQVDQLFHVRHTRSLEHSVSLLAEMTKQINLFYEKRKTLAVIPDLSIEAKTYESLREQLLKIDPSTPYHISYHAFSSVLSKSSTLTVGDIFIRMLMTIKGISASKAIEIQKKYPTFMHLFEAYEKSSSSQERNLLLNKTCQGYGFQTIGPALSAKVASVFFPES
**Q.** For B3, which binding (Psm1–Pk (S. pombe)) is on record?
**A.** Its binding is “binds”.
